Laboratory results reported in patent publication US5225528A (priority 1990, dated 1993).
Strings that start with PEPTIDE1 are HELM notation: dots part the residues, brackets hold end groups and non-standard residues.

Test: general procedure: Boc solid-phase peptide synthesis; Boc-L-Pro-O-(PAM)-resin; chloromethylated resin (Merrifield resin); BOP reagent/DIEA for some couplings; acid chloride coupling
[1] = late stage modification step, HPLC (Method G)
[2] = whole synthesis, 214 nM, scale of the general procedure 1 mmole, head-to-tail ring
[3] = whole synthesis, HPLC (Method G), scale of the general procedure 1 mmole
[4] = whole synthesis, 210 nM, scale of the general procedure 1 mmole, head-to-tail ring
[5] = late stage modification step, 210 nM

## c-[D-Trp-L-Ile-D-Pip-D-(4-Cbz)-Pipe-D-Phe-L-Pro]
Whole synthesis, 210 nM
  final HPLC purity: >94.7%

## Cyclo[D-Trp-L-Ile-D-Pip-L-Orn-D-Trp-L-Pro]
Late stage modification step
  step yield: 64%
[1]
  final HPLC purity: 99%

## c-[D-Tryptophanyl-L-isoleucinyl-D-Δ-piperazyl-L-piperazin-2-yl(4-Cbz)-N-Me-D-phenylalanyl-L-prolyl]
Whole synthesis, 259 nM, scale of the general procedure 1 mmole, head-to-tail ring
  final HPLC purity: >98.4% pure

## PEPTIDE1{[dF].I.[dP].[Dha].[D-NMePhe].P}$PEPTIDE1,PEPTIDE1,1:R1-6:R2$$$V2.0
[1]
  final HPLC purity: 98.2% pure

## Cyclo[D-Phe-L-Ile-D-Pip-L-Pip-D-(p-amino)-Phe-L-Pro]
Late stage modification step
  step yield: 92%
[1]
  final HPLC purity: 97.5%

## c-[D-Tryptophanyl-L-isoleucinyl-D-Δ-piperazyl-L-piperazin-2-yl-N^α -Me-D-phenylalanyl-L-prolyl]
[1]
  final HPLC purity: >96% pure

## c-[D-2-Naphthylalanyl-L-isoleucinyl-D-pipecolyl-L-piperazin-2-yl(4-Cbz)-D-(Nα-methyl)-phenylalanyl-L-prolyl]
[2]
  final HPLC purity: >98% pure

## Cyclo[D-Ala-L-Ile-D-Pip-L-Pip-D-Phe-L-Pro]
[3]
  final HPLC purity: 99%

## c-[D-Phenylalanyl-L-isoleucinyl-D-prolyl-L-piperazin-2-yl(4-Cbz)-D-phenylalanyl-L-prolyl]
[4]
  final HPLC purity: 95% pure

## Cyclo[D-Phe-L-Ile-D-Pip-L-His-D-(N^α Me)Phe-L-Pro]
[3]
  final HPLC purity: 98.5%
Whole synthesis, scale 1 mmole
  isolated mass: 42 mg
Whole synthesis, scale of the general procedure 1 mmole
  isolated yield: 5%

## PEPTIDE1{[dF].I.[D-Pip].N.[D-NMePhe].P}$PEPTIDE1,PEPTIDE1,1:R1-6:R2$$$V2.0
[1]
  final HPLC purity: 94.2% pure

## c-[D-Phenylalanyl-L-isoleucyl-D-prolyl-L-trans-hydroxyprolyl-D-phenylalanyl-L-prolyl]
[2]
  final HPLC purity: 98%

## c-[D-Phenylalanyl-L-(O-benzyl)-threoninyl-D-prolyl-L-prolyl-D-phenylalanyl- L-prolyl]
[2]
  final HPLC purity: 99%

## PEPTIDE1{[dW].I.[D-Pip].K.[D-NMePhe].P}$PEPTIDE1,PEPTIDE1,1:R1-6:R2$$$V2.0
Late stage modification step
  step yield: 48%
[1]
  crude HPLC purity: 99%

## c-[D-Tryptophanyl-L-isoleucinyl-D-Δ-piperazyl-L-pipecolyl-D-histidyl- L-prolyl]
[4]
  final HPLC purity: >97% pure

## c-[D-Trytophanyl-L-isoleucinyl-D-pipecolyl-L-piperazin-2-yl-D-tryptophanyl- L-prolyl]
Late stage modification step, 210 nM, head-to-tail ring
  final HPLC purity: >97.7%

## PEPTIDE1{[dF].I.[D-Pip].[L-Pip].[D-NMePhe].[L-NMeAla]}$PEPTIDE1,PEPTIDE1,1:R1-6:R2$$$V2.0
[3]
  final HPLC purity: 95.1% pure

## C-[D-Phenylalanyl-L-isoleucyl-D-Δ-piperazyl-L-(N^ε -t-Butyloxycarbonyl)-Lysl-M-Me-D-phenylalanyl-L-prolyl]
[3]
  final HPLC purity: >94% pure

## PEPTIDE1{[dW].I.[D-Pip].[Orn(Boc)].[dH].P}$PEPTIDE1,PEPTIDE1,1:R1-6:R2$$$V2.0
Whole synthesis, HPLC Method L, scale of the general procedure 1 mmole, acetate salt
  final HPLC purity: 92.2%

## PEPTIDE1{[dF].I.[dP].S.[NMe-D-Phe].P}$PEPTIDE1,PEPTIDE1,1:R1-6:R2$$$V2.0
Cyclisation step, HPLC (Method G)
  final HPLC purity: 97.8% pure

## c-[D-Tryptophanyl-L-isoleucyl-D-piperazyl(N^δ -Boc)-L-or nithyl-D-histidyl-L-prolyl]
Whole synthesis, HPLC Method L, scale of the general procedure 1 mmole
  final HPLC purity: 92.18%

## c-[D-Phenylalanyl-L-isoleucinyl-D-prolyl-L-piperazin-2-yl-D-phenylalanyl-L- prolyl]
Late stage modification step, 254 nM, head-to-tail ring
  final HPLC purity: >97% pure

## c-[N-Me-D-Homophenylalanyl-N-Me-L-isoleucyl-D-pipecolyl-N-Me-D-phenylalanyl-L-prolyl]
Late stage modification step, 215 nM, head-to-tail ring
  final HPLC purity: >97.5% pure
Late stage modification step, head-to-tail ring
  step yield: 22.5% yield

## c-[D-Tryptophanyl(t-butylacetyl)-L-isoleucinyl-D-pipecolyl-L-piperazin-2-yl(4-t-butylacetyl)-D-(N^α -Me)phenylalanyl-L-prolyl]
[5]
  final HPLC purity: >98% pure

## C-[D-(N^α methyl)phenylalanyl-L-(N^α methyl)isoleucyl-D-pipecolyl-L-pipecolyl-D-(N^α methyl)phenylalanyl-L-prolyl]
Late stage modification step
  step yield: 40%
[1]
  final HPLC purity: 98%

## Cyclo[D-Phe-L-Ile-D-Pip-L-Pip-D-His-L-Pro]
[3]
  final HPLC purity: 99%

## c-[D-Tyrosyl-L-isoleucyl-D-piperazyl-L-piperazyl-D-phenylalanyl-L-prolyl]
Late stage modification step, HPLC (Method G), head-to-tail ring
  final HPLC purity: 98.3% pure

## c-[D-Tryptophanyl-L-isoleucinyl-D-pipecolyl-L-piperazin-2-yl-D-(N^α -methyl)phenylalanyl-L-prolyl]
[5]
  final HPLC purity: >97%
